Reference: publication PMC5764453

Target: T1, prohibitin (PHB), murine (mouse (endogenous in NSC-34)) (UniProt P67778)
T1 sequence: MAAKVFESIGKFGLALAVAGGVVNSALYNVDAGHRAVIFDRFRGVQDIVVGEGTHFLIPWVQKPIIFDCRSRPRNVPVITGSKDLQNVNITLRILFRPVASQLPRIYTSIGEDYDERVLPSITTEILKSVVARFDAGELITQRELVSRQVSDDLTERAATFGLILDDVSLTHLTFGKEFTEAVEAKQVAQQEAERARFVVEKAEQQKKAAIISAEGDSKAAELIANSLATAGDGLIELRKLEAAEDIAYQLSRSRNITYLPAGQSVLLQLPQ
Experiment: co-IP; lysate of EV71-infected NSC-34 cells (M.O.I. 10, 48 h.p.i.); anti-PHB antibody or IgG isotype on Dynabeads Protein G, 3 hours at 4°C; blot with anti-EV71 3D/3CD

EV71 3D polymerase (enzyme) was tested, and the binding was “binds”.

No constants are given. Whether binding was seen depends on the method and setting. In cells and extracts the contact can be indirect. Binding calls can cover weak binding; strength is not graded here.
